Laboratory results: paper PMC10864410, “The pathogen-encoded signalling receptor Tir exploits host-like intrinsic disorder for infection” (Communications Biology, 2024)
These are yes or no findings as the source states them, for the method shown.

Protein sequences, listed by entry. Tags and fused reporters are not part of them. Residues count along the entry.
SBB-Tir, small beta-barrel construct of Tir (N-Tir 76-180) of EPEC O127:H6 (B7UM99, residues 76-180): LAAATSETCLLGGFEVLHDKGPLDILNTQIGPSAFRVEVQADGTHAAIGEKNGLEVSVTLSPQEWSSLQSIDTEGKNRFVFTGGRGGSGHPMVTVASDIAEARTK
UniProt B7UM99, residues 388-550: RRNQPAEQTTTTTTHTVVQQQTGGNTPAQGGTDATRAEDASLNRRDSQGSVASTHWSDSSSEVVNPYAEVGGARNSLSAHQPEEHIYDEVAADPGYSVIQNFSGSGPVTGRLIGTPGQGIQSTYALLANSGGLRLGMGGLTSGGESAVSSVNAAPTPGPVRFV

Key:
[1] = target: C-Tir, C-terminal cytosolic region of Tir of EPEC O127:H6, residues 388-550, unphosphorylated (Enteropathogenic E. coli (EPEC) O127:H6) (UniProt B7UM99); assay: SEC-SAXS; analytical SEC with SAXS, BM29 beamline, Superdex 200 Increase 3.2/300; 20 mM phosphate pH 6.5, 150 mM NaCl, 1 mM EDTA; monomeric single-peak region; both purified
[2] = target: SBB-Tir, small beta-barrel construct of Tir (N-Tir 76-180) of EPEC O127:H6 (Enteropathogenic E. coli (EPEC) O127:H6) (UniProt B7UM99); assay: SEC-SAXS; synchrotron SEC-SAXS of SBB-Tir; molecular weight of a monomer, in line with the gel filtration retention volume; conditions for this construct not told; both purified

## C-Tir, C-terminal cytosolic region of Tir of EPEC O127:H6, residues 388-550, unphosphorylated (from UniProt B7UM99 388-550) (domain or fragment)
[1]
  binding: no binding

## SBB-Tir, small beta-barrel construct of Tir (N-Tir 76-180) of EPEC O127:H6 (from UniProt B7UM99 76-180) (domain or fragment)
[2]
  binding: no binding
